Experimental data taken from patent publication US20260042827A1, “ANTI-WT1 ANTIGEN-BINDING PROTEINS AND USES THEREOF” (UNIVERSITY HEALTH NETWORK, priority 2022, published 2026).

What was measured:
HLA-DP2 (human) [1] = assay: cell-based competitive binding assay
HLA-DP2 (human) [2] = assay: cell-based competitive binding assay (figure legend)
HLA-DP2 (human) [3] = assay: cell-based competitive binding assay on T2/DP2 cells, graded WT1328-348 against reference peptide Oxy271-287

Measured: binding

B1: WT1328-348 (peptide)
peptide: PGCNKRYFKLSHLQMHSRKHT
binds: all assays above

No constants are given. Whether binding was seen depends on the method and setting. Binding calls can cover weak binding; strength is not graded here.
